Data: article PMC11266678
Numbering of substitutions follows the chain as printed. Names and notes keep the numbering of the source. No constants are given. Whether binding was seen depends on the method and setting. Binding seen in cells or lysates may run through a third protein. Some results given as binding are weak or reduced against the parent protein; the word gives no strength.

Sequences of proteins named here, by UniProt entry; tags and fusion partners are left off.
UniProt Q9NS91: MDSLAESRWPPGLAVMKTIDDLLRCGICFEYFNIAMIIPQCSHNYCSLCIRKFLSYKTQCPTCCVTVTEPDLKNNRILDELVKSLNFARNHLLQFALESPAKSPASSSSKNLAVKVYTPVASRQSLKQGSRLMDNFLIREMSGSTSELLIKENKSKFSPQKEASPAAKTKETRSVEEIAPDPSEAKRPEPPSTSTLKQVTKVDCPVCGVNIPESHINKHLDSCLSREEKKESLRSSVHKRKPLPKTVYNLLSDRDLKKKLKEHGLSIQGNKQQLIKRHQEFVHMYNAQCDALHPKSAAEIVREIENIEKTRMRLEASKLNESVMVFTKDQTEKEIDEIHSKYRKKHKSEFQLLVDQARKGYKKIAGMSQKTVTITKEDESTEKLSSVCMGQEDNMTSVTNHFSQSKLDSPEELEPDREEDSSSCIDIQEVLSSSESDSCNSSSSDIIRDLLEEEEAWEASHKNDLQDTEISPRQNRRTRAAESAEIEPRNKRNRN

B1: PARP10 (mono-ADP-ribosyltransferase), endogenous (protein, UniProt Q53GL7 1-1025)
chain: MVAMAEAEAGVAVEVRGLPPAVPDELLTLYFENRRRSGGGPVLSWQRLGCGGVLTFREPADAERVLAQADHELHGAQLSLRPAPPRAPARLLLQGLPPGTTPQRLEQHVQALLRASGLPVQPCCALASPRPDRALVQLPKPLSEADVRVLEEQAQNLGLEGTLVSLARVPQARAVRVVGDGASVDLLLLELYLENERRSGGGPLEDLQRLPGPLGTVASFQQWQVAERVLQQEHRLQGSELSLVPHYDILEPEELAENTSGGDHPSTQGPRATKHALLRTGGLVTALQGAGTVTMGSGEEPGQSGASLRTGPMVQGRGIMTTGSGQEPGQSGTSLRTGPMGSLGQAEQVSSMPMGSLEHEGLVSLRPVGLQEQEGPMSLGPVGSAGPVETSKGLLGQEGLVEIAMDSPEQEGLVGPMEITMGSLEKAGPVSPGCVKLAGQEGLVEMVLLMEPGAMRFLQLYHEDLLAGLGDVALLPLEGPDMTGFRLCGAQASCQAAEEFLRSLLGSISCHVLCLEHPGSARFLLGPEGQHLLQGLEAQFQCVFGTERLATATLDTGLEEVDPTEALPVLPGNAHTLWTPDSTGGDQEDVSLEEVRELLATLEGLDLDGEDWLPRELEEEGPQEQPEEEVTPGHEEEEPVAPSTVAPRWLEEEAALQLALHRSLEPQGQVAEQEEAAALRQALTLSLLEQPPLEAEEPPDGGTDGKAQLVVHSAFEQDVEELDRALRAALEVHVQEETVGPWRRTLPAELRARLERCHGVSVALRGDCTILRGFGAHPARAARHLVALLAGPWDQSLAFPLAASGPTLAGQTLKGPWNNLERLAENTGEFQEVVRAFYDTLDAARSSIRVVRVERVSHPLLQQQYELYRERLLQRCERRPVEQVLYHGTTAPAVPDICAHGFNRSFCGRNATVYGKGVYFARRASLSVQDRYSPPNADGHKAVFVARVLTGDYGQGRRGLRAPPLRGPGHVLLRYDSAVDCICQPSIFVIFHDTQALPTHLITCEHVPRASPDDPSGLPGRSPDT
B2: PARP10 wildtype, exogenously re-expressed in PARP10-knockout HeLa cells (protein, UniProt Q53GL7 1-1025)
chain: B1 chain
B3: PARP10 G888W catalytic site mutant, exogenously re-expressed in PARP10-knockout HeLa cells (protein, UniProt Q53GL7 1-1025)
chain: B1 chain with G888W
B4: PARP10 ΔPIP (V834A, F837A, Y838A triple mutant), exogenously re-expressed in PARP10-knockout HeLa cells (protein, UniProt Q53GL7 1-1025)
chain: B1 chain with V834A, F837A, Y838A

biological target: RAD18 (E3 ubiquitin ligase), endogenous (human (endogenous in HeLa)) (UniProt Q9NS91); assay: proximity ligation; Duolink PLA with PARP10 and RAD18 antibodies on permeabilised, fixed HeLa cells; untreated or 0.4 mM HU for 3 hrs; wildtype cells and PARP10-knockout cells re-expressing PARP10 variants; knockdown of PARP10 or RAD18 as control of specificity

binding, binds:
B1
B2
B3
B4

biological target: RAD18 (E3 ubiquitin ligase), endogenous (human (endogenous in HeLa)) (UniProt Q9NS91); assay: co-IP; anti-RAD18 antibody (control rabbit IgG) with Protein A/G agarose from HeLa extracts in HEPES lysis buffer (50 mM HEPES, 150 mM NaCl, 1 mM EDTA, 1% TritonX-100, 10% glycerol), 4 °C; blot for PARP10; wildtype cells untreated or treated with 0.4 mM HU or 150 µM cisplatin; PARP10-knockout cells re-expressing PARP10 variants

binding, binds:
B1
B2
B3
B4
